Laboratory results as given in paper doi:10.1101/2023.05.01.538937.
Results are given in words; binding and its absence hold for the method and conditions named. Binding seen in cells or lysates may run through a third protein. Some entries that bind do so weakly or less than the wild type.

Sequences of proteins named here, by UniProt entry; tags and fusion partners are left off.
UniProt P03107, whole entry: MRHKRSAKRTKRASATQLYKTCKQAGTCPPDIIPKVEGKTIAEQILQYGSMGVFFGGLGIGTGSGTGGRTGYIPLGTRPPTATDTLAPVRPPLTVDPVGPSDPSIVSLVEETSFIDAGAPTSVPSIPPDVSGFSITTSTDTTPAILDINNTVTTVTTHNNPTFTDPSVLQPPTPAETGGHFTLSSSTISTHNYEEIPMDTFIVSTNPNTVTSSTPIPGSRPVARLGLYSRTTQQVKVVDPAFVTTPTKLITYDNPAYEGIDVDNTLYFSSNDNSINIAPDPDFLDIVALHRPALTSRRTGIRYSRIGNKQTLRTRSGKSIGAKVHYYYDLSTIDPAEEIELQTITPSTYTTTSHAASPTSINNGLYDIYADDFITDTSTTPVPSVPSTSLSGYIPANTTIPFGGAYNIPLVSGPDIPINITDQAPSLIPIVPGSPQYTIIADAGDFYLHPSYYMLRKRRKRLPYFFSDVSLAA

Experiments:
[1] = molecular target: T1, Rab9a (human (endogenous in HeLa S3)) (UniProt P51151); assay: co-IP
T1 sequence: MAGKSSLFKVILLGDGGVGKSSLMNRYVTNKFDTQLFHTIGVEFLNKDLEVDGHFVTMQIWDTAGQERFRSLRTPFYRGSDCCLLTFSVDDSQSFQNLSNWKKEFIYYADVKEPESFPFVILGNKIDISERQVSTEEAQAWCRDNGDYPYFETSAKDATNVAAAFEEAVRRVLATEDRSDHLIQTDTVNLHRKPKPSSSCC

[2] = molecular target: T1, Rab9a (human (endogenous in HeLa S3)); assay: proximity ligation

| Substance | binding [1] | binding [2] |
| --- | --- | --- |
| HPV16 L2 protein with a C-terminal 3xFLAG tag (from UniProt P03107 1-473) | binds | – |
| HPV16 PsV L2-3XFLAG (from UniProt P03101 1-505; P03107 1-473) (complex) | – | binds |
| HPV16 PsV containing HA-tagged wild-type L2 (from UniProt P03101 1-505; P03107 1-473) (complex) | – | binds |
